Publication PMC6341105

Amino acid sequences for entries named in this document (tags omitted).
UniProt Q92560: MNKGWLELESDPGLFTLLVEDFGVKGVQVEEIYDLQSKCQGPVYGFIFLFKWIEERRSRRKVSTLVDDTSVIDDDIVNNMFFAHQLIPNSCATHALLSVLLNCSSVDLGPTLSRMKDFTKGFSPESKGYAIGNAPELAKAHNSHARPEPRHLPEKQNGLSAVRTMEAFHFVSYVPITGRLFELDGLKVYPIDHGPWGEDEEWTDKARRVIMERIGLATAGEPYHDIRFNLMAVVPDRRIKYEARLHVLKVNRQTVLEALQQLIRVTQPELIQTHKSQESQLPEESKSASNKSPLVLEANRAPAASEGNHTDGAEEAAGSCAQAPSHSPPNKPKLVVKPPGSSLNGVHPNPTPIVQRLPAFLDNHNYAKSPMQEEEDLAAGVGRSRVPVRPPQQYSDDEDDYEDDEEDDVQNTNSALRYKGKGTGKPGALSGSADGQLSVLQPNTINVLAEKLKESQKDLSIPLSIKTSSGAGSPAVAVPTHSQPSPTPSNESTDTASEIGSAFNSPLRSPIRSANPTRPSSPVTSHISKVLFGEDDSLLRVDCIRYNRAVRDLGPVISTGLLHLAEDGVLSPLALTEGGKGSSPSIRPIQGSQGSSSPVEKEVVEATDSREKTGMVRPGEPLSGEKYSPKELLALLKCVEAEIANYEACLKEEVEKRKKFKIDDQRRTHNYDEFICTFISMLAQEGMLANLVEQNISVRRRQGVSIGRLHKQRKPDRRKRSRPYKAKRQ
UniProt Q76L83: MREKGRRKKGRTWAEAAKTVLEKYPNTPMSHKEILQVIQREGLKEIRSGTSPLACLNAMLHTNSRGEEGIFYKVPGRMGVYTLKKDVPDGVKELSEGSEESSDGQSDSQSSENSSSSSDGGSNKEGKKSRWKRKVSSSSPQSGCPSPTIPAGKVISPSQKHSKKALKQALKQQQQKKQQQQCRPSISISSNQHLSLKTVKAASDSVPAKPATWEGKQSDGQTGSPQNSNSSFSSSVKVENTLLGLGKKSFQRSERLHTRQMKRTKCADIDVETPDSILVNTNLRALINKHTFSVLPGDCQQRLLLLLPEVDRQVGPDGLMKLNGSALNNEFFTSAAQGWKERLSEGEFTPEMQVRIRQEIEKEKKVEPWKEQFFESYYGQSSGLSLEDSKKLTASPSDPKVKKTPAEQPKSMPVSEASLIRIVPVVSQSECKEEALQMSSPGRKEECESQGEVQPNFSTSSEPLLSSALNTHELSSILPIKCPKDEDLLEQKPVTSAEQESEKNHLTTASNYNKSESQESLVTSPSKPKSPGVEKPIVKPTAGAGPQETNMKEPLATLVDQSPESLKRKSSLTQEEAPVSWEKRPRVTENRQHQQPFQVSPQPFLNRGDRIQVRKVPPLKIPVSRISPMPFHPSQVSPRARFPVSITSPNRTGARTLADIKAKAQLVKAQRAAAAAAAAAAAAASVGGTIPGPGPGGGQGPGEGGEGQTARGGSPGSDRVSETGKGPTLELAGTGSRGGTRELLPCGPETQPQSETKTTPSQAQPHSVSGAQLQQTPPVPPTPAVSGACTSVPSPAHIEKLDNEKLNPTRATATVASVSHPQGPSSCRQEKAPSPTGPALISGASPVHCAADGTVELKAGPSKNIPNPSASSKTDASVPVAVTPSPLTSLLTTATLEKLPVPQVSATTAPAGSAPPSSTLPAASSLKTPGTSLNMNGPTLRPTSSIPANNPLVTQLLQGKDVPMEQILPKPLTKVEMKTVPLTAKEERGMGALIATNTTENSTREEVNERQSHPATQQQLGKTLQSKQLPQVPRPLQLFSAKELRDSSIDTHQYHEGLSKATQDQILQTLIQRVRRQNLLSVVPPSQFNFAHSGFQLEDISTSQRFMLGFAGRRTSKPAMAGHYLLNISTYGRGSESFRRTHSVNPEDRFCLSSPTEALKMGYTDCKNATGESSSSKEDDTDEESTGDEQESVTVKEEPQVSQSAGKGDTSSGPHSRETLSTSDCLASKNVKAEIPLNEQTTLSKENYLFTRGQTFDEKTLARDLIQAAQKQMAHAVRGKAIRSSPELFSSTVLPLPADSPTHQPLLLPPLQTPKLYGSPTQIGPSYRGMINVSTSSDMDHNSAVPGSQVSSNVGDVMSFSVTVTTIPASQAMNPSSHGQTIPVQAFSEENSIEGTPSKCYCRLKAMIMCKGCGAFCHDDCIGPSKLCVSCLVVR
UniProt Q9BZ95: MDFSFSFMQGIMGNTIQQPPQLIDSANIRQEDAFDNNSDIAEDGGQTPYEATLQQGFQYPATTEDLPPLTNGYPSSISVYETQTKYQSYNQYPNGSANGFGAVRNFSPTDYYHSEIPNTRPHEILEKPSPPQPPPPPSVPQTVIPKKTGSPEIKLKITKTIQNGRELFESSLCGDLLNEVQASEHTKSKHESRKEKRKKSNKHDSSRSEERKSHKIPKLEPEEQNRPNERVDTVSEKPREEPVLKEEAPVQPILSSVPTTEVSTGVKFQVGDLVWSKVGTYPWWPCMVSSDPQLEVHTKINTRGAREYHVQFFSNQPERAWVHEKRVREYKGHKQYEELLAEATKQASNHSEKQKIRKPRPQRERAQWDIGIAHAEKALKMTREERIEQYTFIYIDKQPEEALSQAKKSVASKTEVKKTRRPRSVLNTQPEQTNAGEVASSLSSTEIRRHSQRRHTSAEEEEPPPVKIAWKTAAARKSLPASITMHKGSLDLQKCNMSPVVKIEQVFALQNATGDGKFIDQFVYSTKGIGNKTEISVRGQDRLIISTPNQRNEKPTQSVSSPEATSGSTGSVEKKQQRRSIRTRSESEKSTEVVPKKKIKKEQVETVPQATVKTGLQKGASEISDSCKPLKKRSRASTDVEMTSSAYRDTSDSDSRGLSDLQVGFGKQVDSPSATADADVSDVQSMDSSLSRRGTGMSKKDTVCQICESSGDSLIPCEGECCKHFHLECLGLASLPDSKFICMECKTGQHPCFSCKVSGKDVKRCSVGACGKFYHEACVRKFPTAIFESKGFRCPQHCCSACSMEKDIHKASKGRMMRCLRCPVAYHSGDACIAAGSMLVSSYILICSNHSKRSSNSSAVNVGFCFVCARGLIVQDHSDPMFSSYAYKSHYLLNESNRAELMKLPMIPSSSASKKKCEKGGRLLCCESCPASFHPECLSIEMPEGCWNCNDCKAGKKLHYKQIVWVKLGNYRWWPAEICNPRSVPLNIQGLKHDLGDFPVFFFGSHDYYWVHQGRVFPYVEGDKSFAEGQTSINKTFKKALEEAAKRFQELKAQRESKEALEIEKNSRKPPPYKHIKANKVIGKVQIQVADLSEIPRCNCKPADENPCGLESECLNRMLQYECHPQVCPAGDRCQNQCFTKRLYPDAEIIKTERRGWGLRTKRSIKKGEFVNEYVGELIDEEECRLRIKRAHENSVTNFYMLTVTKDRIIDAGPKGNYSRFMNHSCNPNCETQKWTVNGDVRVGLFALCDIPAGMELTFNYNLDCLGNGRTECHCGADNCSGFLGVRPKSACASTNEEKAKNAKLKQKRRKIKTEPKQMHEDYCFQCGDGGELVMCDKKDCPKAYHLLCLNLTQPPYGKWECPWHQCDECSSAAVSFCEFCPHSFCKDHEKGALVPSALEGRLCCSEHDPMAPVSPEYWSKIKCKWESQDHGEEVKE
UniProt Q01167: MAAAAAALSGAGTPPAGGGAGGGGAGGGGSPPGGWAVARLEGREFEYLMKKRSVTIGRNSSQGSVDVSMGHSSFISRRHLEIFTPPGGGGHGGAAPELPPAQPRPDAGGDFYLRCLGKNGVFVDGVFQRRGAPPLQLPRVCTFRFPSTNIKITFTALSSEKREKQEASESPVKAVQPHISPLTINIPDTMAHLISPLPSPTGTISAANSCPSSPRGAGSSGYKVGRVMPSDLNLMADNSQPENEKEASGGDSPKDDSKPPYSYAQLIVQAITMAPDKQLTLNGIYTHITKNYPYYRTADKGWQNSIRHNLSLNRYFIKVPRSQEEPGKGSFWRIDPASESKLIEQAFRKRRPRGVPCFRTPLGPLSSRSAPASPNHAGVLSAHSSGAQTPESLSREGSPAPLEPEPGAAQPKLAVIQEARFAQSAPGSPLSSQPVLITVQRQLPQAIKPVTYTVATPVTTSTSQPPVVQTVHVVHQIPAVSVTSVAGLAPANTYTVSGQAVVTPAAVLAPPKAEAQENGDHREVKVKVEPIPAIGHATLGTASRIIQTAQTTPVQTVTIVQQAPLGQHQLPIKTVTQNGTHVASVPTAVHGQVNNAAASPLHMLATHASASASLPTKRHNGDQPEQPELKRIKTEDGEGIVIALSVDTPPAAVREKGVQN

T1: Flag-tagged KDM1B (2xFlag-2xHA-KDM1B) expressed in HeLa cells (UniProt Q8NB78)
T1 sequence: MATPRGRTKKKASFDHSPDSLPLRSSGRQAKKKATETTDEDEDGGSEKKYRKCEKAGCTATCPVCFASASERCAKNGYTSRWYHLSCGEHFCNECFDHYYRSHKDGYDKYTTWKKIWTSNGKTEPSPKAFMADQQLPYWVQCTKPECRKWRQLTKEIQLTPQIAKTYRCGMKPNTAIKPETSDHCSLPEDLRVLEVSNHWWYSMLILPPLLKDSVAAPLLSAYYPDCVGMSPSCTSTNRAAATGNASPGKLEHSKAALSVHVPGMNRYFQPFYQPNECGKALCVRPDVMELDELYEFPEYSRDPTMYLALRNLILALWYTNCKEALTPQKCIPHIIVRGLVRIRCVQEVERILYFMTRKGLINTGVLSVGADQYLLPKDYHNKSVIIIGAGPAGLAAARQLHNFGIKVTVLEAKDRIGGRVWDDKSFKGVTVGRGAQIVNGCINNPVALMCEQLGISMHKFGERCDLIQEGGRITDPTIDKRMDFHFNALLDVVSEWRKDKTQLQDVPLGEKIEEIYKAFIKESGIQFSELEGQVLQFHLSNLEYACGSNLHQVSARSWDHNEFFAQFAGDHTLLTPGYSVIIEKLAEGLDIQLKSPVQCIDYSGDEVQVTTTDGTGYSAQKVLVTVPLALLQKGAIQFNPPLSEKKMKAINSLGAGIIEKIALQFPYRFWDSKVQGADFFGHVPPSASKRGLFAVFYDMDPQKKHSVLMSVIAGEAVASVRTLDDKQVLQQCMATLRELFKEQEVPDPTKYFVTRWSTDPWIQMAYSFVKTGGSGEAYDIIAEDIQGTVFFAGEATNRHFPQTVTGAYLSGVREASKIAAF


Assays:
Experiment in all cases: affinity purification with mass spectrometry; 100 mg HeLa nuclear extract of cells stably expressing the Flag-tagged bait, dialysed in BC250 (50 mM Tris pH 8.0, 250 mM KCl, 1 mM EDTA, 10% glycerol), anti-FLAG M2 affinity gel overnight, washed with BC250 + 0.05% NP-40, eluted with 0.2 mg/ml Flag peptide; compared with empty vector cells
[1] = biological target: T1, Flag-tagged KDM1B (2xFlag-2xHA-KDM1B) expressed in HeLa cells
[2] = biological target: Flag-tagged BAP1 (2xFlag-2xHA-BAP1) overexpressed in HeLa cells (UniProt Q92560)
[3] = biological target: Flag-tagged ASXL2 (2xFlag-2xHA-ASXL2) overexpressed in HeLa cells (UniProt Q76L83)

Row | binding [1] | Molecule | also measured
1 | binds | NSD3 (endogenous, HeLa) (from UniProt Q9BZ95 1-1437) (enzyme) | –
2 | no binding | FOXK2 (endogenous, HeLa) (from UniProt Q01167 1-660) | –
3 | no binding | HCFC1 (endogenous, HeLa) (human (endogenous in HeLa)) | –
4 | binds | ASXL2 (endogenous, HeLa) (from UniProt Q76L83 1-1435) | –
5 | – | MBD5 (endogenous, HeLa) (protein, UniProt Q9P267 1-1494) MNGGKECDGGDKEGGLPAIQVPVGWQRRVDQNGVLYVSPSGSLLSCLEQVKTYLLTDGTCKCGLECPLILPKVFNFDPGAAVKQRTAEDVKADEDVTKLCIHKRKIIAVATLHKSMEAPHPSLVLTSPGGGTNATPVVPSRAATPRSVRNKSHEGITNSVMPECKNPFKLMIGSSNAMGRLYVQELPGSQQQELHPVYPRQRLGSSEHGQKSPFRGSHGGLPSPASSGSQIYGDGSISPRTDPLGSPDVFTRSNPGFHGAPNSSPIHLNRTPLSPPSVMLHGSPVQSSCAMAGRTNIPLSPTLTTKSPVMKKPMCNFSTNMEIPRAMFHHKPPQGPPPPPPPSCALQKKPLTSEKDPLGILDPIPSKPVNQNPVIINPTSFHSNVHSQVPMMNVSMPPAVVPLPSNLPLPTVKPGHMNHGSHVQRVQHSASTSLSPSPVTSPVHMMGTGIGRIEASPQRSRSSSTSSDHGNFMMPPVGPQATSSGIKVPPRSPRSTIGSPRPSMPSSPSTKSDGHHQYKDIPNPLIAGISNVLNTPSSAAFPTASAGSSSVKSQPGLLGMPLNQILNQHNAASFPASSLLSAAAKAQLANQNKLAGNNSSSSSNSGAVAGSGNTEGHSTLNTMFPPTANMLLPTGEGQSGRAALRDKLMSQQKDALRKRKQPPTTVLSLLRQSQMDSSAVPKPGPDLLRKQGQGSFPISSMSQLLQSMSCQSSHLSSNSTPGCGASNTALPCSANQLHFTDPSMNSSVLQNIPLRGEAVHCHNANTNFVHSNSPVPNHHLAGLINQIQASGNCGMLSQSGMALGNSLHPNPPQSRISTSSTPVIPNSIVSSYNQTSSEAGGSGPSSSIAIAGTNHPAITKTTSVLQDGVIVTTAAGNPLQSQLPIGSDFPFVGQEHALHFPSNSTSNNHLPHPLNPSLLSSLPISLPVNQQHLLNQNLLNILQPSAGEGDMSSINNTLSNHQLTHLQSLLNNNQMFPPNQQQQQLLQGYQNLQAFQGQSTIPCPANNNPMACLFQNFQVRMQEDAALLNKRISTQPGLTALPENPNTTLPPFQDTPCELQPRIDPSLGQQVKDGLVVGGPGDASVDAIYKAVVDAASKGMQVVITTAVNSTTQISPIPALSAMSAFTASIGDPLNLSSAVSAVIHGRNMGGVDHDGRLRNSRGARLPKNLDHGKNVNEGDGFEYFKSASCHTSKKQWDGEQSPRGERNRWKYEEFLDHPGHIHSSPCHERPNNVSTLPFLPGEQHPILLPPRNCPGDKILEENFRYNNYKRTMMSFKERLENTVERCAHINGNRPRQSRGFGELLSTAKQDLVLEEQSPSSSNSLENSLVKDYIHYNGDFNAKSVNGCVPSPSDAKSISSEDDLRNPDSPSSNELIHYRPRTFNVGDLVWGQIKGLTSWPGKLVREDDVHNSCQQSPEEGKVEPEKLKTLTEGLEAYSRVRKRNRKSGKLNNHLEAAIHEAMSELDKMSGTVHQIPQGDRQMRPPKPKRRKISR | binding [2]: binds
6 | – | KDM1B (endogenous, HeLa) (enzyme, UniProt Q8NB78 1-822) MATPRGRTKKKASFDHSPDSLPLRSSGRQAKKKATETTDEDEDGGSEKKYRKCEKAGCTATCPVCFASASERCAKNGYTSRWYHLSCGEHFCNECFDHYYRSHKDGYDKYTTWKKIWTSNGKTEPSPKAFMADQQLPYWVQCTKPECRKWRQLTKEIQLTPQIAKTYRCGMKPNTAIKPETSDHCSLPEDLRVLEVSNHWWYSMLILPPLLKDSVAAPLLSAYYPDCVGMSPSCTSTNRAAATGNASPGKLEHSKAALSVHVPGMNRYFQPFYQPNECGKALCVRPDVMELDELYEFPEYSRDPTMYLALRNLILALWYTNCKEALTPQKCIPHIIVRGLVRIRCVQEVERILYFMTRKGLINTGVLSVGADQYLLPKDYHNKSVIIIGAGPAGLAAARQLHNFGIKVTVLEAKDRIGGRVWDDKSFKGVTVGRGAQIVNGCINNPVALMCEQLGISMHKFGERCDLIQEGGRITDPTIDKRMDFHFNALLDVVSEWRKDKTQLQDVPLGEKIEEIYKAFIKESGIQFSELEGQVLQFHLSNLEYACGSNLHQVSARSWDHNEFFAQFAGDHTLLTPGYSVIIEKLAEGLDIQLKSPVQCIDYSGDEVQVTTTDGTGYSAQKVLVTVPLALLQKGAIQFNPPLSEKKMKAINSLGAGIIEKIALQFPYRFWDSKVQGADFFGHVPPSASKRGLFAVFYDMDPQKKHSVLMSVIAGEAVASVRTLDDKQVLQQCMATLRELFKEQEVPDPTKYFVTRWSTDPWIQMAYSFVKTGGSGEAYDIIAEDIQGTVFFAGEATNRHFPQTVTGAYLSGVREASKIAAF | binding [3]: binds

Results are given in words; binding and its absence hold for the method and conditions named. In cells and extracts the contact can be indirect. Here binding means that the protein was enriched with, or labelled near, the bait; the list need not be complete. For part of these data: A no says only that the protein was not detected with the bait. For part of these data: Tags and fused reporters may be left off the sequences shown.
